Source: PubChem BioAssay AID208 (DTP/NCI, 2004)
The list shows only some results of the screen, not a fair sample: its compounds were picked by chemical class. Not every dose and run of a compound is shown. T/C: endpoint of the treated group in % of that of the vehicle group. Schedules are NCI's codes, read here as Q, the interval in days (D) or hours (H), X, the number of doses. Some entries show no survivor count and are marked so; the dose need not have been tolerated.

Test system: HT29 intrarenal xenograft, nude mice, tumor weight change
Assay: NCI In Vivo Anticancer Drug Screen. Data for tumor model HT29;CX-1 Human Adenocarcinoma (MER+) (intrarenal inoculation) in NU/NU BALB/C (nude) mice
Conditions: T/C endpoint: mean tumor weight change, schedule: Q04DX004 (sc), vehicle: saline, evaluated on day 15, higher T/C = larger tumour
Description: The antitumor activity of compounds was measured in mice bearing transplantable tumors. Survival or tumor size were measured and the results are expressed as the measurement made in the treated group (T) divided by the measurement made in the vehicle treated control group (C). The tumor model used in this assay is HT29;CX-1 Human Adenocarcinoma (MER+) (intrarenal inoculation) in NU/NU BALB/C (nude) mice

With CC(=O)OC[C@]12C[C@H](OC(=O)CC(C)C)C(C)=C[C@H]1O[C@@H]1[C@H](O)[C@@H](O)[C@@]2(C)[C@@]12CO2 the T/C (dose: 1.0 mg/kg/injection) was 103 % of control [survivor count not shown], the T/C (dose: 2.0 mg/kg/injection) was 71 % of control [survivor count not shown] and the T/C (dose: 4.0 mg/kg/injection) was 78 % of control [survivor count not shown].
